Results are given in words; binding and its absence hold for the method and conditions named. Binding seen in cells or lysates may run through a third protein. A yes stands for co-enrichment or nearness to the bait. Other partners may have been found.
T1: p66Shc (66 kDa isoform of ShcA), endogenous (mouse (endogenous in mouse liver and AML12)) (UniProt P98083)
T1 sequence: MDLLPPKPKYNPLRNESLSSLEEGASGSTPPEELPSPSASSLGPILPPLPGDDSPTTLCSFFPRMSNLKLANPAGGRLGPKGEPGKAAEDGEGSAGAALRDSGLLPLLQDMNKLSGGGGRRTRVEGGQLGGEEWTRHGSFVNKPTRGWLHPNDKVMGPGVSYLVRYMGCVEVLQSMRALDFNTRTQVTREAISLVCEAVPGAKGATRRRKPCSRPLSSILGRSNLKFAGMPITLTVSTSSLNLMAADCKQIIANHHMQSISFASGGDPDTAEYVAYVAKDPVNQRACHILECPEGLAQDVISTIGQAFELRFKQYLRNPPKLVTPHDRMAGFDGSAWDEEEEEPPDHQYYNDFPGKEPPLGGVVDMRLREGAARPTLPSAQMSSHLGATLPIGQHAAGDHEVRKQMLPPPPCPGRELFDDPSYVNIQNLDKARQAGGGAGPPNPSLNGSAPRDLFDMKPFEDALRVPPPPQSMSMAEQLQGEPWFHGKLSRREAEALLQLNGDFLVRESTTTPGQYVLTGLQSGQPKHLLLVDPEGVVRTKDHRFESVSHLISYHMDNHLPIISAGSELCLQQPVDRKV

The chains behind the UniProt entries cited, without tags or fusion partners.
UniProt P56399: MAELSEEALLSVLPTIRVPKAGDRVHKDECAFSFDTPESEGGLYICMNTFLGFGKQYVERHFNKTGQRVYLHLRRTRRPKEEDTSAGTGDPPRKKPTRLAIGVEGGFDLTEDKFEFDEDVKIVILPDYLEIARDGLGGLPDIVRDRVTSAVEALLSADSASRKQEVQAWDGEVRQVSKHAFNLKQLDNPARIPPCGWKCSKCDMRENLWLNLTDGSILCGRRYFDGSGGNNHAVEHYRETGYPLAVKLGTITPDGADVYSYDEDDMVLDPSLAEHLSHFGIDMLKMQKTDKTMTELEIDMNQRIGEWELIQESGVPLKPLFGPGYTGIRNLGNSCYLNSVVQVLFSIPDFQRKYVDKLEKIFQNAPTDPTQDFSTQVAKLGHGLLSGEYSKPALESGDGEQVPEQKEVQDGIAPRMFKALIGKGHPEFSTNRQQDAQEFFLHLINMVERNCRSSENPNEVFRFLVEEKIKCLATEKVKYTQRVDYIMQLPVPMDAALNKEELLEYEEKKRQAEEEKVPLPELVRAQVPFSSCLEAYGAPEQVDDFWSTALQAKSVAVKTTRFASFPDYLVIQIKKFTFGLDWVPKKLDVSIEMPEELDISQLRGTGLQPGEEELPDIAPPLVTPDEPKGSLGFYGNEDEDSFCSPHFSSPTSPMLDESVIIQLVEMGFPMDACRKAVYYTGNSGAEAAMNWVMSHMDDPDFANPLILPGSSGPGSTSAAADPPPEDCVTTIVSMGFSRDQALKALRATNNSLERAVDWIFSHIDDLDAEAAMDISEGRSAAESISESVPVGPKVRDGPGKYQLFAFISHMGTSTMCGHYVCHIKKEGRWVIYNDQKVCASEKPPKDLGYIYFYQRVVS
UniProt Q9JMA1: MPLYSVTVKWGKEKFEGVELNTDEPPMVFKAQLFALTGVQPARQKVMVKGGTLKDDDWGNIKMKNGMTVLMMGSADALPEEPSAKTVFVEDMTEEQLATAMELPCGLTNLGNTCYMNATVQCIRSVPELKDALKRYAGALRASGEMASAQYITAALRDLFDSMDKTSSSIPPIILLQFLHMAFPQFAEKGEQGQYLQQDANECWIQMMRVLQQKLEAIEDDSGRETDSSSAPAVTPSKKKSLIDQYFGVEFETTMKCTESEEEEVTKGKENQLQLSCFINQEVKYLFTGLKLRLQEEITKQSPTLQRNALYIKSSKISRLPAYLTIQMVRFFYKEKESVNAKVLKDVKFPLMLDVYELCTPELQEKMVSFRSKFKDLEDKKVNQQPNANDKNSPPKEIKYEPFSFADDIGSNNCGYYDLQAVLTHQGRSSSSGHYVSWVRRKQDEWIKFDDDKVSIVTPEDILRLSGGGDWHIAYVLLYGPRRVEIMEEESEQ
UniProt P52479: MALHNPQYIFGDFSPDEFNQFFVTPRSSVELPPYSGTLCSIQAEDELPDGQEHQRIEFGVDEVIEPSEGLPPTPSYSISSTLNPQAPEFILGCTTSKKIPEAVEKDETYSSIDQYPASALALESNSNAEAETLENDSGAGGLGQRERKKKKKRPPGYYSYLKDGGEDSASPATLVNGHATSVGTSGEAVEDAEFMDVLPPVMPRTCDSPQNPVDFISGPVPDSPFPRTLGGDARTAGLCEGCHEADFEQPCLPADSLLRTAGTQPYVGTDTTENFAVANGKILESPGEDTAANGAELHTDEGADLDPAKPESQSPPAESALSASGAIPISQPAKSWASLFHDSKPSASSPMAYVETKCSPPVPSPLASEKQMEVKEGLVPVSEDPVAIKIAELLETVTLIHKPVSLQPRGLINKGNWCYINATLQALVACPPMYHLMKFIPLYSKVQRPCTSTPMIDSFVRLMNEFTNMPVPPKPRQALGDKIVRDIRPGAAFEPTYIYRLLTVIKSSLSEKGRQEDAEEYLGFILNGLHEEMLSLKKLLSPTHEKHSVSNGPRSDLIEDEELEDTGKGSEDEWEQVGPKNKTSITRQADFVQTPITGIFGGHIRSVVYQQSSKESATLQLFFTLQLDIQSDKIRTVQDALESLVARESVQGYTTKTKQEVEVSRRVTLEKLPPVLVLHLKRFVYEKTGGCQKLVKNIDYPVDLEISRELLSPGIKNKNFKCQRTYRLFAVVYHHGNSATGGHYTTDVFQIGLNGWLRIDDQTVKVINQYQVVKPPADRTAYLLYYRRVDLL

B1: ubiquitin-specific protease 15 (USP15), endogenous (enzyme, UniProt Q8R5H1 1-981)
chain: MAEGGAADLDTQRSDIATLLKTSLRKGDTWYLVDSRWFKQWKKYVGFDSWDKYQMGDQNVYPGPIDNSGLLKDGDAQSLKEHLIDELDYILLPTEGWNKLVSWYTLMEGQEPIARKVVEQGMFVKHCKVEVYLTELKLCENGNMNNVVTRRFSKADTIDTIEKEIRKIFNIPDEKEARLWNKYMSNTFEPLNKPDSTIQDAGLYQGQVLVIEQKNEDGTWPRGPSTPKSPGASNFSTLPKISPSSLSNNYNNINNRNVKNSNYCLPSYTAYKNYDYSEPGRNNEQPGLCGLSNLGNTCFMNSAIQCLSNTPPLTEYFLNDKYQEELNFDNPLGMRGEIAKSYAELIKQMWSGKFSYVTPRAFKTQVGRFAPQFSGYQQQDCQELLAFLLDGLHEDLNRIRKKPYIQLKDADGRPDKVVAEEAWENHLKRNDSIIVDIFHGLFKSTLVCPECAKISVTFDPFCYLTLPLPMKKERSLEVYLVRMDPLAKPMQYKVIVPKIGNILDLCTALSALSGVPADKMIVTDIYNHRFHRIFAVDENLSSIMERDDIYVFEININRAEDTEHVVIPVCLREKFRHSSYTHHTGSSLFGQPFLMAIPRNNTEDKLYNLLLLRMCRYVKMSTETEETDGHLRCCEDQNINGNGPNGLHEEGSPSEMETDEPDDESSQDQELPSENENSQSEDSVGGDNDSENGLCTEETCKGQLTGHKKRLFTFQFNNLGNNDINYIKDDTSHIRFDDRQLRLDERSFLALDWDPDLKKRYFDENAAEDFEKHESVEYKPPKRPFVKLKDCIELFTTKEKLGAEDPWYCPNCKEHQQATKKLDLWSLPPVLVVHLKRFSYSRYMRDKLDTLVDFPISDLDMSEFLINPNAGPCRYNLIAVSNHYGGMGGGHYTAFAKNKDDGKWYYFDDSSVSTASEDQIVSKAAYVLFYQRQDTFSGTGFFPLDRETKGASAATGIPLESDEDSNDNDNDLENENCMHTN
B2: USP43, endogenous (enzyme, UniProt Q8BUM9 1-1132)
chain: MDPGVGNALGEGPPAPRPRRRRSLRRLLNRFLLALGSRSRSGDSPPRPPAQPSPYDGDGEGGFACAPGPAPASAGSPGPDRPPGSQPQISSGDGARPPGAQGLKNHGNTCFMNAVVQCLSNTDLLAEFLALGRYRAAPGRAEVTEQLAALVRALWTREYTPQLSAEFKNAVSKYGSQFQGNSQHDALEFLLWLLDRVHEDLEGSAHGLVSEQLPPEVSKISEDLRPSAAPTSLGPSFVQSHFQAQYRSSLTCPHCLKQSNTFDPFLCVSLPIPLRQTRFLSVTLVFPSKSQRFLRVGLAVPILSTVAALRKMVAEEGGVPAEEVILVELYPNGFQRSFFDEEDLNTIAEGDNVYAFQVPPSPGLGTLSAHPSGLSVSPRLPVRDSQRFSGPLHSENRVVFLFCNLVGSGQQASRFGPPFLIREDRTISWAQLQQCILSKVRCLMRSEVSAQDLGTLFSIRVVGLSLACSYLSPKDNRPLCHWAVDRALHLRRPGGPPHVKLAVEWDSSVTERLFGSLQEERVQDADSVWRQQQAHQQPSCTLDECFQSYTKEEQLAQDDAWKCPHCQVLQQGVVKLSLWTLPDILIIHLKRFCQVGERRNKLSTLVKFPLSGLNMAPHVARRSTNSKAGPGPWSSWKQPICLPTTYPLDFLYDLYAVCNHHGSLQGGHYTAYCRNSLDGQWYSYDDSTVEALREDEVNTRGAYILFYQKRNSIPPWSASSSMRGSTSSSLSDHWLMRLGSLNNSTRGSLLSWSSAPCPSMARVPDSPVFTNGVCHQDKGGVETRPLVRGVGGRSISMKASPASRSRHGPFKTMPLRWSFGHREKRPGASVELVEYLESRRRPRSTSQSIVPLLTRAAGGEETSASPRSDGTLPAKSEDSGRAIGQGTTGVPLSSCHLNHHPALGSLDDSLHTARTRTGNVSQDIRLPKKFDLPLTVMPSVGDEKPARPEGQKMTPWKGSSQVGSQSSPPSPSTGLLRNFKDSGPGTLPKMKSKAAMEERAPDKDRGQGTFTLLKSVFWKKEHKRTVRTESSPPAPPISLGSDRLSPAAMNEQALRIRESPAKGLGNHMERDIRSAPSSLHLPRKASRPPRASTAGTSQRTIPGEQISYGTLQRVKYHTLSLGRKKSLPESSF
B3: USP47, endogenous (enzyme, UniProt Q8BY87 1-1376)
chain: MVPGEENQLVPKEDVFWRCRQNIFDEMKKKFLQIENAAEEPRVLCIIQDTTNSKTVSERITLNLPASTPVRKLFEDVANKVGYINGTFDLTRENGVTTADMAPLDHTSDKSLLDANFEPGKKNFLHLTDKDGEPPQMLLEDSNNVDDSVHDRFIGPLPREGSVASTNDYVSQNYSYSSILNKSETGYVGLVNQAMTCYLNSLLQTLFMTPEFRNALYKWEFEDSEEDPVTSIPYQLQRLFVLLQTSKKRAIETTDVTRSFGWDSSEAWQQHDVQELCRVMFDALEQKWKQTEQADLINELYQGKLKDYVRCLECGYEGWRIDTYLDIPLVIRPYGSSQAFASVEEALHAFIQPEILDGPNQYFCERCKKKCDARKGLRFLHFPYLLTLQLKRFDFDYTTMHRIKLNDRMSFPEELDMSTFIDIEDEKSPQTESCTDSGAENEGSCHSDQMSNDFSTDDAVDEGICLESSSGSEKISKPGLEKNSLMYELFSVMVHSGSAAGGHYYACIKSFSDDQWYSFNDQHVSRITQEDIKKTHGGSSGSRGYYSSAFASSTNAYMLIYRLKDPTRNAKFLEVDEYPEHIKNLVQKERELEEQEKRQREIERNTCKIKLFCLHPVKQVMMENKLEVHKDKTLKEAVEMAYKMMDLEDVIPLDCCRLVKYDEFHDYLERSYEGEEDTPMGLLLGGVKSTYMFDLLLETRKPDQIFQSYKPGEVMVKVHVVDLKAETVAAPVTVRAYLNQTVTEFKQLISKATHLPADSMRIVLERCYNDLRLLSMPSKTLKAEGFFRSNKVFVESSETVDHQAAFTDSHLWKLLDRHANTIRLFVLLPEQSPGSYSKRTAYQKAGGDSGNVDDDCERVKGPAGNLKSVDAILEESTEKLKSLSLQQQQQDGDNGDSSKSTETSDFENIESPLNERGSSTSVDNRELEQHIQTSDPENFQSEERSDSDVNNDRSTSSVDSDILSSSHSSDTLCNADSAQIPLANGLDSHSITSSRRTKANEGKKETWDTAEEDSGTDSEYDESGKSRGDMQYMYFKADPYTADEGSGEGHKWLMVHVDKRITLAAFKQHLEPFVGVLSSHFKVFRVYTSNQEFETVRLNETLSSFSDDNKITIRLGRALKKGEYRVKVCQLLVNEQEPCKFLLDAVFAKGMTVRQSKEELIPQLREQCGLDLSIDRFRLRKKTWKNPGTVFLDYHIYEEDINISSNWEVFLEVLDGVEKMKSMSQLAILTRRWRPAEMKLDPFQELVLESNSVDELREKLSEISGIPLEDIEFAKGRGTFPCDISVLDIHQDLDWNPKVSTLNVWPLYICDDGAVIFYRDRTEEVMELTDEQRNELMKKESSRLQKTGHRVTYSPRKEKALKIYLDGAPNKDVAQD
B4: Dusp28, endogenous (enzyme, UniProt Q8BTR5 1-163)
chain: MGTSEAAPPPFARVAPALFIGNARAAGATELLVRAGITLCVNVSRQQPGPRAPGVAELRVPVFDDPAEDLLTHLEPTCAAMEAAVRDGGSCLVYCKNGRSRSAAVCTAYLMRHRGHSLDRAFQMVKSARPVAEPNLGFWAQLQKYEQTLQAQAILPREPIDPE

Target: T1, p66Shc (66 kDa isoform of ShcA), endogenous (mouse (endogenous in mouse liver and AML12))
Assay: affinity purification with mass spectrometry; IP with anti-p66Shc antibody on Protein A/G magnetic beads from AML12 cells exposed to H/R; room temperature 1 h; SDS-PAGE, Coomassie, in-gel digestion, LC-MS/MS; search of the UniProt human database

Molecule	binding
USP5, endogenous (from UniProt P56399 1-858) (enzyme)	binds
USP14, endogenous (from UniProt Q9JMA1 1-493) (enzyme)	binds
USP10, endogenous (from UniProt P52479 1-792) (enzyme)	binds
B1	binds
B2	binds
B3	binds
B4	binds

— publication PMC9512921
